# Measured values: PubChem BioAssay AID248 (DTP/NCI, 2004)
# The list is a part of this screen's results and no random one: it gathers tests that were run many times, whatever their T/C, doses with no T/C, and many T/C values between a quarter and a half above the control. Further doses and runs are listed elsewhere. T/C gives the treated animals as a percentage of the vehicle group. Some doses have a count of surviving animals in place of a T/C: the source files T/C as zero there, which appears to mark a toxic dose or a test without result, not a measured value. Some survivor counts are full or nearly so, which does not show that the dose was tolerated: survival well below the control is almost never listed, so the zero probably covers shortened survival too. Survivors were counted at the toxicity check, usually on the fifth day, unless a day is given; later deaths do not show. Schedule codes are those of the source, read here as Q, the interval in days (D) or hours (H), X, the number of doses. Some schedule codes hold Z or #, which are not explained here. For survival time, this PubChem deposit counts one and a half times the control or more as active, and values a quarter to a half above the control carry no call in these data; other NCI protocols may use other cut-offs. Some doses were run more than once; their values stand side by side, smallest first. Counts like (3×) give the number of equal values in this list. Some T/C values carry the count of animals alive at the toxicity check (mostly the fifth day); where none is given, no animal had died by that day.
# Tested on: L1210 leukemia ip in BDF1 mice, survival T/C
# Experiment: NCI In Vivo Anticancer Drug Screen. Data for tumor model L1210 Leukemia (intraperitoneal) in B6D2F1 (BDF1) mice
# Conditions: higher T/C = longer survival
# [1] = T/C endpoint: median survival time, dose: 64.0 mg/kg/injection, schedule: Q01DX009 (oral), vehicle: saline
# [2] = T/C endpoint: mean survival time, dose: 200.0 mg/kg/injection, schedule: Q01DX009 (ip), vehicle: saline
# [3] = T/C endpoint: mean survival time, dose: 400.0 mg/kg/injection, schedule: Q01DX009 (ip), vehicle: Klucel (hydroxypropylcellulose) (HPC)
smiles,measurement,setting,value
C[C@H](CN1CC(=O)NC(=O)C1)N1CC(=O)NC(=O)C1,T/C,"T/C endpoint: mean survival time, dose: 100.0 mg/kg/injection, schedule: Q04DX003 (ip), vehicle: water",129 % of control
same,T/C,"T/C endpoint: median survival time, dose: 8.0 mg/kg/injection, schedule: Q01DX009 (ip), vehicle: saline","115, 127, 131 (2×), 133 % of control"
same,T/C,"T/C endpoint: median survival time, dose: 8.0 mg/kg/injection, schedule: Q01DX009 (oral), vehicle: saline","130, 130 [9 of 10 alive], 139, 141 % of control"
same,T/C,"T/C endpoint: median survival time, dose: 8.0 mg/kg/injection, schedule: Q01DX009 (sc), vehicle: saline",126 % of control
same,T/C,"T/C endpoint: median survival time, dose: 8.0 mg/kg/injection, schedule: Q03HX024 (ip), vehicle: saline",142 % of control
same,T/C,"T/C endpoint: median survival time, dose: 16.0 mg/kg/injection, schedule: Q01DX009 (ip), vehicle: saline","140, 152 (2×), 155, 162 % of control"
same,T/C,"T/C endpoint: median survival time, dose: 16.0 mg/kg/injection, schedule: Q01DX009 (oral), vehicle: saline","141, 151, 153, 157 % of control"
same,T/C,"T/C endpoint: median survival time, dose: 32.0 mg/kg/injection, schedule: Q01DX009 (ip), vehicle: saline","132, 152, 164, 171, 175 % of control"
same,T/C,"T/C endpoint: median survival time, dose: 32.0 mg/kg/injection, schedule: Q01DX009 (oral), vehicle: saline","98, 106, 128, 172 % of control"
same,T/C,"T/C endpoint: median survival time, dose: 32.0 mg/kg/injection, schedule: Q03HX016 (ip), vehicle: saline",139 % of control [9 of 10 alive]
same,T/C,"T/C endpoint: median survival time, dose: 64.0 mg/kg/injection, schedule: Q01DX009 (ip), vehicle: saline","115, 120, 124, 141, 168 % of control"
same,T/C,[1],"86, 89, 102 % of control"
same,survivor count,[1],10 of 10
same,survivor count,"T/C endpoint: median survival time, dose: 64.0 mg/kg/injection, schedule: Q03HX008 (ip), vehicle: saline",10 of 10
same,survivor count,"T/C endpoint: median survival time, dose: 64.0 mg/kg/injection, schedule: Q03HX016 (ip), vehicle: saline",7 of 10
same,survivor count,"T/C endpoint: median survival time, dose: 64.0 mg/kg/injection, schedule: Q03HX024 (ip), vehicle: saline",9 of 10
same,survivor count,"T/C endpoint: median survival time, dose: 128.0 mg/kg/injection, schedule: Q01DX009 (oral), vehicle: saline",10 of 10
same,survivor count,"T/C endpoint: median survival time, dose: 128.0 mg/kg/injection, schedule: Q03HX016 (ip), vehicle: saline",10 of 10
same,survivor count,"T/C endpoint: median survival time, dose: 128.0 mg/kg/injection, schedule: Q03HX024 (ip), vehicle: saline",10 of 10
same,T/C,"T/C endpoint: median survival time, dose: 128.0 mg/kg/injection, schedule: Q04DX003 (sc), vehicle: saline",132 % of control
same,T/C,"T/C endpoint: median survival time, dose: 256.0 mg/kg/injection, schedule: Q04DX003 (ip), vehicle: saline",142 % of control
same,T/C,"T/C endpoint: median survival time, dose: 256.0 mg/kg/injection, schedule: Q04DX003 (oral), vehicle: saline","145, 146, 153, 226 % of control"
same,T/C,"T/C endpoint: median survival time, dose: 256.0 mg/kg/injection, schedule: Q08DX002 (ip), vehicle: saline",147 % of control
same,T/C,"T/C endpoint: median survival time, dose: 512.0 mg/kg/injection, schedule: Q04DX003 (oral), vehicle: saline","164, 173, 177, 271 % of control"
same,T/C,"T/C endpoint: median survival time, dose: 1024.0 mg/kg/injection, schedule: Q01DX001 (ip), vehicle: saline",130 % of control
same,T/C,"T/C endpoint: median survival time, dose: 1024.0 mg/kg/injection, schedule: Q04DX003 (oral), vehicle: saline","108, 151, 194, 206 % of control"
same,T/C,"T/C endpoint: median survival time, dose: 2048.0 mg/kg/injection, schedule: Q04DX003 (oral), vehicle: saline","87, 91 (2×), 111 % of control"
CSC(=N)N,survivor count,"T/C endpoint: mean survival time, dose: 400.0 mg/kg/injection, schedule: Q01DX001 (ip), vehicle: saline",2 of 6
same,survivor count,"T/C endpoint: mean survival time, dose: 400.0 mg/kg/injection, schedule: Q04DX002 (ip), vehicle: saline",2 of 3
O=C(CI)Nc1ccc2oc(=O)c(C(=O)O)cc2c1,survivor count,"T/C endpoint: mean survival time, dose: 200.0 mg/kg/injection, schedule: Q01DX001 (ip), vehicle: Klucel (hydroxypropylcellulose) (HPC)",0 of 6
same,survivor count,"T/C endpoint: mean survival time, dose: 400.0 mg/kg/injection, schedule: Q01DX001 (ip), vehicle: Klucel (hydroxypropylcellulose) (HPC)",0 of 6
CC1CCC/C(=N/Nc2ccc3ccccc3n2)C1 (stereo unspecified),survivor count,"T/C endpoint: mean survival time, dose: 150.0 mg/kg/injection, schedule: Q01DX001 (ip), vehicle: saline",0 of 6
same,survivor count,"T/C endpoint: mean survival time, dose: 300.0 mg/kg/injection, schedule: Q01DX001 (ip), vehicle: saline",0 of 6
CCC(C)C(CCCCN1CCOCC1)(CNC(=O)CN(CC)CC)c1cccc2ccccc12 (stereo unspecified),survivor count,"T/C endpoint: mean survival time, dose: 100.0 mg/kg/injection, schedule: Q01DX009 (ip), vehicle: saline",5 of 6
same,survivor count,[2],0 of 6
same,survivor count,"T/C endpoint: mean survival time, dose: 400.0 mg/kg/injection, schedule: Q01DX009 (ip), vehicle: saline",0 of 6
NCCO[Si](OCCN)(OCCN)OCCN,survivor count,[2],0 of 3
CC(C)c1oc(=O)cc2c1C(O)C1OC(=O)C3(C)C(O)C4OC4C2(C)C13 (stereo unspecified),survivor count,"T/C endpoint: mean survival time, dose: 200.0 mg/kg/injection, schedule: Q01DX009 (ip), vehicle: Klucel (hydroxypropylcellulose) (HPC)",3 of 6
same,survivor count,[3],0 of 6
O=C(CC(O)(C(F)(F)Cl)C(F)(F)Cl)c1ccco1,survivor count,"T/C endpoint: mean survival time, dose: 400.0 mg/kg/injection, schedule: Q04DX003 (ip), vehicle: saline with Tween-80",0 of 6
CC(C)N=C(NC(C)C)c1ccc(NC(=O)c2ccc(C(=O)Nc3ccc(C(=NC(C)C)NC(C)C)cc3)cc2)cc1,survivor count,"T/C endpoint: mean survival time, dose: 31.0 mg/kg/injection, schedule: Q01DX Z (ip), vehicle: methylcellulose (MC)",0 of 6
same,survivor count,"T/C endpoint: mean survival time, dose: 62.5 mg/kg/injection, schedule: Q01DX Z (ip), vehicle: methylcellulose (MC)",0 of 6
same,survivor count,"T/C endpoint: mean survival time, dose: 125.0 mg/kg/injection, schedule: Q01DX Z (ip), vehicle: methylcellulose (MC)",0 of 6
CSc1nc(N)nc(N)n1,survivor count,[3],0 of 6
Nc1ccc(/C=C2\C=Cc3ccccc32)cc1,survivor count,"T/C endpoint: mean survival time, dose: 75.0 mg/kg/injection, schedule: Q01DX001 (ip), vehicle: acetone",2 of 6
same,survivor count,"T/C endpoint: mean survival time, dose: 75.0 mg/kg/injection, schedule: Q01DX009 (ip), vehicle: saline",0 of 6
same,survivor count,"T/C endpoint: mean survival time, dose: 150.0 mg/kg/injection, schedule: Q01DX001 (ip), vehicle: acetone",0 of 6
same,survivor count,"T/C endpoint: mean survival time, dose: 200.0 mg/kg/injection, schedule: Q01DX001 (ip), vehicle: olive oil, sesame oil, peanut oil",3 of 6
same,survivor count,"T/C endpoint: mean survival time, dose: 400.0 mg/kg/injection, schedule: Q01DX001 (ip), vehicle: olive oil, sesame oil, peanut oil",1 of 6
C=C1CC2(CCC23COC(=O)C3=C)OC1=O (stereo unspecified),survivor count,"T/C endpoint: mean survival time, dose: 12.5 mg/kg/injection, schedule: Q01DX001 (ip), vehicle: other",1 of 3
same,survivor count,"T/C endpoint: mean survival time, dose: 100.0 mg/kg/injection, schedule: Q01DX001 (ip), vehicle: other",0 of 3
same,survivor count,"T/C endpoint: mean survival time, dose: 200.0 mg/kg/injection, schedule: Q01DX001 (ip), vehicle: other",0 of 3
same,survivor count,"T/C endpoint: mean survival time, dose: 400.0 mg/kg/injection, schedule: Q01DX001 (ip), vehicle: other",0 of 3
CCC[CH2][Hg][O]C(C)=O,survivor count,"T/C endpoint: mean survival time, dose: 25.0 mg/kg/injection, schedule: Q04DX003 (ip), vehicle: Klucel (hydroxypropylcellulose) (HPC)",1 of 6
same,survivor count,"T/C endpoint: mean survival time, dose: 100.0 mg/kg/injection, schedule: Q04DX003 (ip), vehicle: Klucel (hydroxypropylcellulose) (HPC)",0 of 6
same,survivor count,"T/C endpoint: mean survival time, dose: 200.0 mg/kg/injection, schedule: Q04DX003 (ip), vehicle: Klucel (hydroxypropylcellulose) (HPC)",0 of 6
same,survivor count,"T/C endpoint: mean survival time, dose: 400.0 mg/kg/injection, schedule: Q04DX003 (ip), vehicle: Klucel (hydroxypropylcellulose) (HPC)",0 of 6
CC(C)C[CH2][Pb]([CH2]CC(C)C)([CH2]CC(C)C)[O]C(=O)C(Cl)(Cl)Cl,survivor count,"T/C endpoint: mean survival time, dose: 12.5 mg/kg/injection, schedule: Q01DX009 (ip), vehicle: Klucel (hydroxypropylcellulose) (HPC)",2 of 6
same,survivor count,"T/C endpoint: mean survival time, dose: 18.0 mg/kg/injection, schedule: Q01DX009 (ip), vehicle: Klucel (hydroxypropylcellulose) (HPC)",0 of 6
same,survivor count,"T/C endpoint: mean survival time, dose: 25.0 mg/kg/injection, schedule: Q04DX002 (ip), vehicle: Klucel (hydroxypropylcellulose) (HPC)",3 of 3
same,survivor count,"T/C endpoint: mean survival time, dose: 28.0 mg/kg/injection, schedule: Q01DX009 (ip), vehicle: Klucel (hydroxypropylcellulose) (HPC)",0 of 6
same,survivor count,"T/C endpoint: mean survival time, dose: 40.0 mg/kg/injection, schedule: Q01DX009 (ip), vehicle: Klucel (hydroxypropylcellulose) (HPC)",0 of 6
same,survivor count,"T/C endpoint: mean survival time, dose: 50.0 mg/kg/injection, schedule: Q04DX002 (ip), vehicle: Klucel (hydroxypropylcellulose) (HPC)",0 of 3
same,survivor count,"T/C endpoint: mean survival time, dose: 100.0 mg/kg/injection, schedule: Q04DX002 (ip), vehicle: Klucel (hydroxypropylcellulose) (HPC)",0 of 3
same,survivor count,"T/C endpoint: mean survival time, dose: 200.0 mg/kg/injection, schedule: Q04DX002 (ip), vehicle: Klucel (hydroxypropylcellulose) (HPC)",0 of 3
same,survivor count,"T/C endpoint: mean survival time, dose: 400.0 mg/kg/injection, schedule: Q04DX002 (ip), vehicle: Klucel (hydroxypropylcellulose) (HPC)",0 of 3
